In assay [1] the target is T1, citrate synthase (UniProt P00889).
T1 sequence: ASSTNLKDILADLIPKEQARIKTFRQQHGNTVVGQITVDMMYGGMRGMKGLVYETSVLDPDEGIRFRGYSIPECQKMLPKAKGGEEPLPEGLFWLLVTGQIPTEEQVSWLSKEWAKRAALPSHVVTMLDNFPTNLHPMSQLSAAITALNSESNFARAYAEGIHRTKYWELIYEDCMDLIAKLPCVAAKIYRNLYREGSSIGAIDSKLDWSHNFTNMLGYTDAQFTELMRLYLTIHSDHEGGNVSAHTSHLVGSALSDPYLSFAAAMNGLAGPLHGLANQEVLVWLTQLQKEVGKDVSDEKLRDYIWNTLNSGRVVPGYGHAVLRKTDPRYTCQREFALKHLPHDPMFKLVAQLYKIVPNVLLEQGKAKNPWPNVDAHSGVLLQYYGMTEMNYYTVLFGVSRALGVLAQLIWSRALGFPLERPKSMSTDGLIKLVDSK
Nature of the assay: SEC-MALS; mixtures of chaperone and citrate synthase (chaperone-to-substrate ratio 1:2) incubated at 43 °C for 0, 40 and 80 min, then run on a TSK G5000PWXL column with UV, refractive index, MALS and quasi-elastic light scattering detectors; both purified. (Size exclusion chromatography separates by hydrodynamic size, large species first.)

In assay [2] the target is lysozyme (UniProt P00698). The assay is described as follows: co-sedimentation; lysozyme (5 µM) aggregated with DTT in 0.25 mL PBS at 37 °C for 60 min with 1 or 5 µM chaperone; centrifuged at 6000 rpm for 20 min; pellet and supernatant on SDS-PAGE, band intensities; both purified.

No constants are given. Whether binding was seen depends on the method and setting. Some results given as binding are weak or reduced against the parent protein; the word gives no strength.

B1: αB-crystallin with residues 54–61 deleted (protein, UniProt P02511)
chain: MDIAIHHPWIRRPFFPFHSPSRLFDQFFGEHLLESDLFPTSTSLSPFYLRPPSDTGLSEMRLEKDRFSVNLDVKHFSPEELKVKVLGDVIEVHGKHEERQDEHGFISREFHRKYRIPADVDPLTITSSLSSDGVLTVNGPRKQVSGPERTIPITREEKPAVTAAPKK
With B1, the binding entry in assay [1] and in assay [2] was “binds” throughout.

B2: wild-type αB-crystallin (protein, UniProt P02511 1-175)
chain: MDIAIHHPWIRRPFFPFHSPSRLFDQFFGEHLLESDLFPTSTSLSPFYLRPPSFLRAPSWFDTGLSEMRLEKDRFSVNLDVKHFSPEELKVKVLGDVIEVHGKHEERQDEHGFISREFHRKYRIPADVDPLTITSSLSSDGVLTVNGPRKQVSGPERTIPITREEKPAVTAAPKK
With B2, the binding entry in assay [1] is reported as “binds weakly”; in assay [2] it was “binds”.

For the origin of these results see paper PMC8509813.
